Assay results taken from publication PMC6158461.

Sequences of proteins named here, by UniProt entry; tags and fusion partners are left off. A change or cut given only in a name is not applied to a line headed by its entry.
UniProt O54439: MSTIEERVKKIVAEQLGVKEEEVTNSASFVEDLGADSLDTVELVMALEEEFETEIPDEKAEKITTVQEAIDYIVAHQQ
UniProt Q9HYR1: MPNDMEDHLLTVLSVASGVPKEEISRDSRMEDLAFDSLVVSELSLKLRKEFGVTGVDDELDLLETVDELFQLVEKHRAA
UniProt Q9HXI8: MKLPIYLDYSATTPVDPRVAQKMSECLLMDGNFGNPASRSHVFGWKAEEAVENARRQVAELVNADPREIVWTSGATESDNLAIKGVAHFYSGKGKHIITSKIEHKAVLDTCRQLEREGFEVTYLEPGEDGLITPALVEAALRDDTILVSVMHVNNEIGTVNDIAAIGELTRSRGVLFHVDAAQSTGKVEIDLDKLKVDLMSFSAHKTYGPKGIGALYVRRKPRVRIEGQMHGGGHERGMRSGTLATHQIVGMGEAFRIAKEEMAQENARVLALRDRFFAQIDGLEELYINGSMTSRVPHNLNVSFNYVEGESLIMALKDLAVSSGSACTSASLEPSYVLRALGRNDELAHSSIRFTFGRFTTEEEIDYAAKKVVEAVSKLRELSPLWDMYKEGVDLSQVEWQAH
UniProt P09591: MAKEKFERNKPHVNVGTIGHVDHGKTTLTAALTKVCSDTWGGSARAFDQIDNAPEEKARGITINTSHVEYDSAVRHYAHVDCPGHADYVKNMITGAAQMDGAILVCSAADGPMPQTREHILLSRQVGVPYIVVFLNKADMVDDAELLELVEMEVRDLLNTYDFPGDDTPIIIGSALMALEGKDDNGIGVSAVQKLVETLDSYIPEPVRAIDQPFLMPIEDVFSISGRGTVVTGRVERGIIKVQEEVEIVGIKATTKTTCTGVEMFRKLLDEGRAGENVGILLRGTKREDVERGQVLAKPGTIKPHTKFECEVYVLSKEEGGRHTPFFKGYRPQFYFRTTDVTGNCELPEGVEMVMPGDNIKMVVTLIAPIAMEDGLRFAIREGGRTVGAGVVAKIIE
UniProt P23747: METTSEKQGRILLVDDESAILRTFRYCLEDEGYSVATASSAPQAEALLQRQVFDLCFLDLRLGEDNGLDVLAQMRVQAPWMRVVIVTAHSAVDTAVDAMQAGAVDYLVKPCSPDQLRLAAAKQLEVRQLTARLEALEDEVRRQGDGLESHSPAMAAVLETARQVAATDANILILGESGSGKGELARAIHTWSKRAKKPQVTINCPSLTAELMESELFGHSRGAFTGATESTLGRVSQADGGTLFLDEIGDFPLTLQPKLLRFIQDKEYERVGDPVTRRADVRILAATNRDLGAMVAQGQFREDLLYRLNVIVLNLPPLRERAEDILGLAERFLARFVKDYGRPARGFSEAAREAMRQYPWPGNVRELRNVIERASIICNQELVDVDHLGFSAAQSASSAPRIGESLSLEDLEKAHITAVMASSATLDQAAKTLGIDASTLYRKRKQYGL
UniProt P53593: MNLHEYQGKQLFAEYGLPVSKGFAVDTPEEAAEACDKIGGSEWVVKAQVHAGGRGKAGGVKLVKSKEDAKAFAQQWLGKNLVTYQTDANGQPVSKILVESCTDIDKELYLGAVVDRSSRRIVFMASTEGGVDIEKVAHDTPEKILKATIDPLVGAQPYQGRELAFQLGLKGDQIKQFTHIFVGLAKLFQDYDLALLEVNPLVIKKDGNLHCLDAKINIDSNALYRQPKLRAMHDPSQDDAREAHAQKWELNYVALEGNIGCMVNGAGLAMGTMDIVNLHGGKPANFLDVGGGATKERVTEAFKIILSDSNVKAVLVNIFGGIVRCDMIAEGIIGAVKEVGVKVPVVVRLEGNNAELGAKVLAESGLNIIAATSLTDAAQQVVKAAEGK

Key:
Assay in all cases: affinity purification with mass spectrometry; tandem (sequential peptide) affinity purification of chromosomally SPA-tagged ACPs from stationary-phase PAO1 lysates: anti-FLAG M2 magnetic beads, 0.1% Triton X-100, TEV cleavage, calmodulin Sepharose, 4°C; untagged PAO1 as control; only proteins identified in both of two experiments reported
[1] = target: AcpP with C-terminal SPA tag (strain CW20) (P. aeruginosa) (UniProt O54439)
[2] = target: Acp3 with C-terminal SPA tag (strain CW21) (P. aeruginosa) (UniProt Q9HYR1)
[3] = target: T1, Acp1 with C-terminal SPA tag (strain CW22) (P. aeruginosa) (UniProt O52658)
T1 sequence: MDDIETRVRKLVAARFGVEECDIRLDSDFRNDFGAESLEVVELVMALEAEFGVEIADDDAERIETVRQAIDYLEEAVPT

binding [2]	binding [3]	Substance	binding [1]
binds		IscS, cysteine desulfurase (from UniProt Q9HXI8 1-404) (enzyme)	binds
	binds	Tuf1, elongation factor Tu (from UniProt P09591 1-397)	
		AlgB, alginate biosynthesis transcriptional regulator (from UniProt P23747 1-449)	binds
binds		SucC, succinyl-CoA ligase (from UniProt P53593 1-388) (enzyme)	

These are yes or no findings as the source states them, for the method shown. In cells and extracts the contact can be indirect. A yes stands for co-enrichment or nearness to the bait. Other partners may have been found. For some assays here: Where a sequence is shown, tags or fusion partners need not be part of it.
